Laboratory results published in publication PMC4899871.
No constants are given. Whether binding was seen depends on the method and setting. In cells and extracts the contact can be indirect. Some entries that bind do so weakly or less than the wild type. For some assays here: Where a sequence is shown, tags or fusion partners need not be part of it.

Chains of the proteins cited; added tags and fusions are not shown. Lines headed by an entry give the natural chain unless they say otherwise; changes in a name come on top. A line that says so, or that is headed by a name, gives the form on record, which may keep a tag or linker.
UniProt O60603: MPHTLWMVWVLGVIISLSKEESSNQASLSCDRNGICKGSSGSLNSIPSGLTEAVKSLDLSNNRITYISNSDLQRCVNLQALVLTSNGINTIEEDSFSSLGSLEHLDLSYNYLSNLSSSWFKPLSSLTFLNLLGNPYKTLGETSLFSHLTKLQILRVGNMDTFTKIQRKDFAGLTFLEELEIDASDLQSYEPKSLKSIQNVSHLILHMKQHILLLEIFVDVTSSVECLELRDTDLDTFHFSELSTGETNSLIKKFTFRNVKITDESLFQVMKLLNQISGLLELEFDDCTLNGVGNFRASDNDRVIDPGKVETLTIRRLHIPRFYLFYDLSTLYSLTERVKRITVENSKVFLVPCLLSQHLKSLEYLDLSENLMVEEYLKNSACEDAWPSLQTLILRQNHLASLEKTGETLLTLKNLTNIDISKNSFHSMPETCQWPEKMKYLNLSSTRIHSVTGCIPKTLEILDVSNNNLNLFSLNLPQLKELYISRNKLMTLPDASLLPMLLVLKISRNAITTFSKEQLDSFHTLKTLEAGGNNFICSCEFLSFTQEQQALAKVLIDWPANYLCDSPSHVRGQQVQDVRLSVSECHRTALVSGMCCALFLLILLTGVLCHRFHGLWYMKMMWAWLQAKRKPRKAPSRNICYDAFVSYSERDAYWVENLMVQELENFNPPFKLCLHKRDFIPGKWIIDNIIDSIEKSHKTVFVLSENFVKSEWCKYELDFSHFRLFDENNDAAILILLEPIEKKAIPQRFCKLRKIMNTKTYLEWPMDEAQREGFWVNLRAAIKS
UniProt Q9HC29: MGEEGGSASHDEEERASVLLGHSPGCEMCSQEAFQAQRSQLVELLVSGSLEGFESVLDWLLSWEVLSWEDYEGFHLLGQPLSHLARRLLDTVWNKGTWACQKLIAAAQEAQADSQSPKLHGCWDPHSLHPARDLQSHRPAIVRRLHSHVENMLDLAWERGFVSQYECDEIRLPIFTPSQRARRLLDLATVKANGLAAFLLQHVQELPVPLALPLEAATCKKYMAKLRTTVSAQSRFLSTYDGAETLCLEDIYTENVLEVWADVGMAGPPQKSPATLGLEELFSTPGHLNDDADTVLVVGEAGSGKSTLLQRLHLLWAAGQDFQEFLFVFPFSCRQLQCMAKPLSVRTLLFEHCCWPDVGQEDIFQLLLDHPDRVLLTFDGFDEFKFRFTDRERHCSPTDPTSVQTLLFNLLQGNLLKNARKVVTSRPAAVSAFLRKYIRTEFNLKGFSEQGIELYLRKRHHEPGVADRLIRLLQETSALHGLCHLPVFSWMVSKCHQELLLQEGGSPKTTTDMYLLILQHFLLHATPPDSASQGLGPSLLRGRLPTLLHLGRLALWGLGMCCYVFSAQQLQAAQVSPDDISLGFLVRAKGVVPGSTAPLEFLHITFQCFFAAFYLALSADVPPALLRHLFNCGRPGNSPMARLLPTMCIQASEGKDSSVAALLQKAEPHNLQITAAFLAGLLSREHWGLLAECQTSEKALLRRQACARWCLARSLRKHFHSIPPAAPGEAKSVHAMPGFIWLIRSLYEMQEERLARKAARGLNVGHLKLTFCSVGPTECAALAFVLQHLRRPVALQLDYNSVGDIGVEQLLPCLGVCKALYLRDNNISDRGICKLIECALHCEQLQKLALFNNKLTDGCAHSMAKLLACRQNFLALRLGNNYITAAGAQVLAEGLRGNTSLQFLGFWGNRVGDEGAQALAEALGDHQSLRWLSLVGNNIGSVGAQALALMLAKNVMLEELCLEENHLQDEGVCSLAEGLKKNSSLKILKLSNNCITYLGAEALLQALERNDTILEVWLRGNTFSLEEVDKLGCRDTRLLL
UniProt Q8WXF8: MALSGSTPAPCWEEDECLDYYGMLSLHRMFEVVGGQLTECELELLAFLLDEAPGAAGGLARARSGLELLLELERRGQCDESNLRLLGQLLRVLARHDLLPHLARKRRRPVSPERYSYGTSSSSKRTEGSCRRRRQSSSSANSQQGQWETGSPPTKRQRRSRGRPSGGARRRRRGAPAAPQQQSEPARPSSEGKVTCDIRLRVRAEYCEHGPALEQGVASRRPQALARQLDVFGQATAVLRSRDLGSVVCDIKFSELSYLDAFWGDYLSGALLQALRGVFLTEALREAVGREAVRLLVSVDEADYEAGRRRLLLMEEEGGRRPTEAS
UniProt Q9Y228: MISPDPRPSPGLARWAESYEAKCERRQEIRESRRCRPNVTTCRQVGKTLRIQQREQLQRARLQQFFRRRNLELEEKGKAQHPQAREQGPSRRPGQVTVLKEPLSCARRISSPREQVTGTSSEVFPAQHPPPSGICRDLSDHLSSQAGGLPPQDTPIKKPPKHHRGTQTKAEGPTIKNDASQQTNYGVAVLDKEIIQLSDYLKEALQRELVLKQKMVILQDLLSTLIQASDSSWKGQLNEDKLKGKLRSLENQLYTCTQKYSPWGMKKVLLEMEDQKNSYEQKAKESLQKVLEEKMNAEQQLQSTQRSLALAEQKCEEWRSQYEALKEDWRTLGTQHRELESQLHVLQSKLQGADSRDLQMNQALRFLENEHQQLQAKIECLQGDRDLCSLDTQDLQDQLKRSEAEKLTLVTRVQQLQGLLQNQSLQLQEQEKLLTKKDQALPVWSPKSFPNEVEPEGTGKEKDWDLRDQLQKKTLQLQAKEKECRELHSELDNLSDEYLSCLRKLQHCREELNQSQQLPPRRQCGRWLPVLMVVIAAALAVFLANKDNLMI
UniProt Q676U5: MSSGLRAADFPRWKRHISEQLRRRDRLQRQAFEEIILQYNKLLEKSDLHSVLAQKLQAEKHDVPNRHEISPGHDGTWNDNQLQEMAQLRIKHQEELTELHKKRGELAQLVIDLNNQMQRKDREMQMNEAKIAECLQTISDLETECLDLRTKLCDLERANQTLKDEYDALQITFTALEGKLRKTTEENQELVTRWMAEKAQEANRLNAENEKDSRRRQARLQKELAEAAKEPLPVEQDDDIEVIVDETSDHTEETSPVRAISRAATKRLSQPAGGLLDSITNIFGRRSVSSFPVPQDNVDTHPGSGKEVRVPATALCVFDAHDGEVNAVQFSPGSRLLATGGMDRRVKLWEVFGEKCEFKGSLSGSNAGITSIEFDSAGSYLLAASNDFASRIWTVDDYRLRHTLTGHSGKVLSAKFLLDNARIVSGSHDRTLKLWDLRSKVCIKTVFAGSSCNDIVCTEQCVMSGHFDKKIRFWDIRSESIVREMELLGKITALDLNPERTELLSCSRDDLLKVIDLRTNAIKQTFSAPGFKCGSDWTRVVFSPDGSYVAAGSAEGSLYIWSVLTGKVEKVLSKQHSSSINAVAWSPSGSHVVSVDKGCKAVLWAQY
full-length ATG16L1-A300 expressed in bacteria (Q676U5, form named): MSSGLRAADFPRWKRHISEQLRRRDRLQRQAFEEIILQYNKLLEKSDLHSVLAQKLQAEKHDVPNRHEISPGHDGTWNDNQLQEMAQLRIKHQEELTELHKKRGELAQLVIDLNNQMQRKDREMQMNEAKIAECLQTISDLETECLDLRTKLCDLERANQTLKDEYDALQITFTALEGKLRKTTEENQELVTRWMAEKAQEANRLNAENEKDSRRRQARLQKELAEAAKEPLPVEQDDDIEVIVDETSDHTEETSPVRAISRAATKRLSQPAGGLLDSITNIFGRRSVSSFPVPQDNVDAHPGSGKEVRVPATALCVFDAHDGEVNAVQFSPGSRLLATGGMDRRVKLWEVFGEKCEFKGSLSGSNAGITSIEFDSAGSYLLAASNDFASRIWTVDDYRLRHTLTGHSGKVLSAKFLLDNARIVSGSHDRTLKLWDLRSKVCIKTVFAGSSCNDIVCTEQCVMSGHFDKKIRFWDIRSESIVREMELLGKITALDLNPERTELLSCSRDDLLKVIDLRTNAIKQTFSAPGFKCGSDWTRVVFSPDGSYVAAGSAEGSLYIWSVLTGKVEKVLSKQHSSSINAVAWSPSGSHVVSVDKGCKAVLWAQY

Assays:
[1] = biological target: T1, TMEM59-GST (in HCT116 cell strains) (UniProt Q9BXS4); test: co-IP; Parental and knock-in HCT116, restored ATG16L1-/- HCT116 and restored Atg16l1-/- MEFs, retrovirally transduced with TMEM59-GST for 36 h; glutathione-agarose precipitates; immunoblot
T1 sequence: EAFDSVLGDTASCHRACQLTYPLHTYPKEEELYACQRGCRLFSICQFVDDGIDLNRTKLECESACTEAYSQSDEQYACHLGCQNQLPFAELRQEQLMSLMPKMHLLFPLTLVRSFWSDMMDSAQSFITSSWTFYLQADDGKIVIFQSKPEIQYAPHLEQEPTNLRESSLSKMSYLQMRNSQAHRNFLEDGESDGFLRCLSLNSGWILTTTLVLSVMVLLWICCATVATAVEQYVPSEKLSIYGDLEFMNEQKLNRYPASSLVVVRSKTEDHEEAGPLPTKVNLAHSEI

[2] = biological target: T2, TMEM59-GST (TMEM59 tagged with glutathione-S-transferase) (UniProt Q9BXS4); test: co-IP; HEK-293T cells transfected with both partners and lysed 36 h after transfection (1% Igepal CA-630, 50 mM Tris HCl pH 7.5, 150 mM NaCl, 5 mM EDTA); lysate diluted to 0.2% detergent; the GST fusion precipitated on glutathione-agarose (4 °C, 1-3 h); immunoblot
T2 sequence: T1 sequence

[3] = biological target: T3, TMEM59-GST (in restored Atg16l1-/- MEFs) (UniProt Q9BXS4); test: co-IP; Atg16l1-/- MEFs reconstituted with HA-ATG16L1 T300 or A300, retrovirally transduced with TMEM59-GST, infected with GFP-expressing S. aureus (2 h, m.o.i. 25) or left uninfected; glutathione-agarose precipitates; immunoblot
T3 sequence: T1 sequence

[4] = biological target: T3, TMEM59-GST (in restored Atg16l1-/- MEFs); test: co-IP; Parental and knock-in HCT116, restored ATG16L1-/- HCT116 and restored Atg16l1-/- MEFs, retrovirally transduced with TMEM59-GST for 36 h; glutathione-agarose precipitates; immunoblot
[5] = biological target: GST-TLR2(761–779) (UniProt O60603); test: pull-down; GST fusion proteins from E. coli BL21 loaded on glutathione-agarose beads; incubated with crude bacterial lysate containing ATG16L1-T300 or -A300 (equivalent to 1 ml of induced culture, 3 h, 4 °C); western blot; only the target purified
[6] = biological target: T4, GST-NOD2(63–78) (UniProt Q9HC29); test: as above
T4 sequence: WEVLSWEDYEGFHLLG

[7] = biological target: T5, GST-263–281 (fusion between GST and the active element of TMEM59) (UniProt Q9BXS4); test: as above
T5 sequence: TAVEQYVPSEKLSIYGDLE

[8] = biological target: T6, GST-DEDD2(12–25) (UniProt Q8WXF8); test: as above
T6 sequence: WEEDECLDYYGMLS

[9] = biological target: T7, GST-T3JAM(318–333) (UniProt Q9Y228); test: as above
T7 sequence: WRSQYEALKEDWRTLG

ATG16L1 of parental HCT116 cells (T300) (from UniProt Q676U5 1-607)
binding [1]: binds

ATG16L1-A300 of knock-in HCT116 cells (KI-ATG16L1-T300A) (from UniProt Q676U5 1-607)
binding [1]: binds

HA-ATG16L1-A300 (full-length human ATG16L1β, T300A Crohn's disease risk allele) (from UniProt Q676U5 1-607)
binding [2]: binds

HA-ATG16L1-A300 (in restored ATG16L1-/- HCT116 cells) (from UniProt Q676U5 1-607)
binding [1]: binds

HA-ATG16L1-A300 (in restored Atg16l1-/- MEFs) (from UniProt Q676U5 1-607)
binding [3]: binds | binding [4]: binds

HA-ATG16L1-T300 (full-length human ATG16L1β, non-risk allele) (from UniProt Q676U5 1-607)
binding [2]: binds

HA-ATG16L1-T300 (in restored ATG16L1-/- HCT116 cells) (from UniProt Q676U5 1-607)
binding [1]: binds

HA-ATG16L1-T300 (in restored Atg16l1-/- MEFs) (from UniProt Q676U5 1-607)
binding [3]: binds | binding [4]: binds

full-length ATG16L1-A300 expressed in bacteria (from UniProt Q676U5 1-607)
binding [5]: binds | binding [6]: binds

full-length ATG16L1-T300 expressed in bacteria (from UniProt Q676U5 1-607)
binding [7]: binds | binding [8]: binds | binding [9]: binds | binding [5]: binds | binding [6]: binds
